According to publication PMC10286672:
These are yes or no findings as the source states them, for the method shown. In cells and extracts the contact can be indirect. Some entries that bind do so weakly or less than the wild type.

Sequences of proteins named here, by UniProt entry; tags and fusion partners are left off.
UniProt Q86U44: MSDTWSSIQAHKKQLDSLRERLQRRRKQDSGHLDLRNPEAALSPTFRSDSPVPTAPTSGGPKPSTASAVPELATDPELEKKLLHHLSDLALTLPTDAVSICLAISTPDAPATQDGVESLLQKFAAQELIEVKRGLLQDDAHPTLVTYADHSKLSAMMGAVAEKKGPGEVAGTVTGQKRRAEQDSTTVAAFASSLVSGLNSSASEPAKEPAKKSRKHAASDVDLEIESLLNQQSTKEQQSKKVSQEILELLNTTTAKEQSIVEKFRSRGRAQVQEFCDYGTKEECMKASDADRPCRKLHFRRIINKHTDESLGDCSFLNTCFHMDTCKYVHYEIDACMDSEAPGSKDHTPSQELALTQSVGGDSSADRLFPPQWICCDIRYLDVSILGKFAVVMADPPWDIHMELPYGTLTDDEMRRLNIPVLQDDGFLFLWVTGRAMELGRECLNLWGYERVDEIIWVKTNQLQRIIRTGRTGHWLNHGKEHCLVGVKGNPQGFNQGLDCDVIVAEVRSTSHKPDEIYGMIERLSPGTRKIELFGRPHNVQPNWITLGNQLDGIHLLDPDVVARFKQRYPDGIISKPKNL
UniProt P89522: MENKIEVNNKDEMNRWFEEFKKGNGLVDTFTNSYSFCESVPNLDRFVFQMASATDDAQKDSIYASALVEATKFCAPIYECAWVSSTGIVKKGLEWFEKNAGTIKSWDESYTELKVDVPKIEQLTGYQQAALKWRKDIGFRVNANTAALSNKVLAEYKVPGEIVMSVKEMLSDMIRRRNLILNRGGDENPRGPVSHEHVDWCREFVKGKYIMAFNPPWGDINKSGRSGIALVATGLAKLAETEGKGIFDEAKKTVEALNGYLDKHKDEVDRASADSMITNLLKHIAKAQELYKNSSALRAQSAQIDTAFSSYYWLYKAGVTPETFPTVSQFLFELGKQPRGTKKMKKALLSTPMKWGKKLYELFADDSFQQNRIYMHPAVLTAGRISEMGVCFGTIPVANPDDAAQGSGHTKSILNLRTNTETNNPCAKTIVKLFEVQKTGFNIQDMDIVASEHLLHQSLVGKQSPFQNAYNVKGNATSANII
UniProt Q05127: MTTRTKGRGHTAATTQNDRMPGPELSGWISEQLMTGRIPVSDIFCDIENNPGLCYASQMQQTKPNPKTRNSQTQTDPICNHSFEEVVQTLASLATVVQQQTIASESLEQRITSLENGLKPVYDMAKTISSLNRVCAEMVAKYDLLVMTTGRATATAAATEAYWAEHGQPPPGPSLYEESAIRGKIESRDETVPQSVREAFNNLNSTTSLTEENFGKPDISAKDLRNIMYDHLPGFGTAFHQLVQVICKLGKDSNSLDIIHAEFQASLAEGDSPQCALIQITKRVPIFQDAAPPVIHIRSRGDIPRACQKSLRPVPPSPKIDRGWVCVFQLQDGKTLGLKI
UniProt Q05323: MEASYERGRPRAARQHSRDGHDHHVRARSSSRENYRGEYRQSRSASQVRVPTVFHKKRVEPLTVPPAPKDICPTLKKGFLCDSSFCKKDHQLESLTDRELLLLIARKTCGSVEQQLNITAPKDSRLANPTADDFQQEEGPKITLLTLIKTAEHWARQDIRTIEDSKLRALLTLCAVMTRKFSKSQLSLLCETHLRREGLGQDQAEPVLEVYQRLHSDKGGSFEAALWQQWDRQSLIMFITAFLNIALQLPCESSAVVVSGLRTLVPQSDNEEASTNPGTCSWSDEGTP

Target: flagHA-METTL3 (UniProt Q86U44)
Assay: co-IP

Substance	binding
CCHFV nucleoprotein (N) (from UniProt P89522 1-482)	binds
EBOV VP35 (from UniProt Q05127 1-340)	no binding
EBOV VP30 (from UniProt Q05323 1-288)	binds
